Test results: patent US20240092914A1 (NEW PARADIGM BIOSCIENCES USA, published 2024)
Results are given in words; binding and its absence hold for the method and conditions named. Some results given as binding are weak or reduced against the parent protein; the word gives no strength.

By UniProt entry, the sequences of proteins in these tests, tags left out. Residues count along the entry.
UniProt Q8WTT0, residues 45-213: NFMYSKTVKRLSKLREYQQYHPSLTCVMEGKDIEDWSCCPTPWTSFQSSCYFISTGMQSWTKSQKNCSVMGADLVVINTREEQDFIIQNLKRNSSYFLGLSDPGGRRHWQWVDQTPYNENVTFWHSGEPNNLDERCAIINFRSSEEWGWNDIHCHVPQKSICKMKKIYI

Legend:
[1] = molecular target: BDCA-2 antigen (Biorbyt CLEC4C orb358925) (human) (UniProt Q8WTT0); assay: ELISA, absorbance 450 - 590 nm; the coated antigen is not named for this figure and is taken from the in-house NPB-303 binding ELISA of paragraph 305
[2] = molecular target: BDCA-2 antigen (Biorbyt CLEC4C orb358925) (human) (UniProt Q8WTT0); assay: ELISA, plate coated with BDCA-2 antigen, detection with HRP anti-human IgG Fc, A450 corrected by A590

B1: NPB-303 humanized anti-BDCA2 monoclonal antibody (huIgG1) (antibody, V domains shown)
VH: EVQLVESGGGLVKPGGSLRLSCAASGFTFSTMSWVRQAPGKRLEWVASISSGGSTYYPDSVKGRFTISRDNAKNSLYLQMNSLRAEDTAVYYCARPSYDGYSSWFAYWGQGTLVTVSS
VL: EIVLTQSPATLSLSPGERATLSCKASQSVDYDGDGFMNWYQQKPGQAPRLLIYTASNLESGVPARFSGSGSGTDFTLTISSLEPEDFAVYYCQQSNEDPWTFGGGTKVEIKR
notes: Humanized from mouse mAb 12b, human IgG1/kappa
B1 was tested, and the binding [1] was “binds” and the binding [2] was “binds”.
